Patent US20050288489A1 (published 2005)
These are yes or no findings as the source states them, for the method shown. Binding calls can cover weak binding; strength is not graded here.

Molecular target: T1, fluorescein-labeled AID peptide, fluorescein-…-COOH
T1 sequence (peptide, fluorescein attached at the amino-terminus): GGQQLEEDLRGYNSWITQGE
Test: fluorescence polarization, NusA-domain II fusion incubated with TEV protease and labeled peptide

Q: For VDCC β2a domain II (rabbit), which binding is on record?
A: binds
